Data taken from paper PMC11784345.
The exact form of at least one protein or probe is not confirmed. No signal at the amounts used counts as a negative. The comparison behind a weaker result is the experiment's own reference, which may not be listed here. For some assays here: At least one verdict was read from the data and is not stated in words by the source.

How the values were obtained:
MBP-His8-MilO [1] = assay: EMSA; conditions: EMSA: 20 mM Tris-HCl pH 8.0, 100 mM KCl, 2.5 mM MgCl2, 0.2 mM DTT, 10% glycerol, salmon sperm DNA, 30 C 10 min (Fig 5 legend: room temperature); recombinant protein; protein details: N-terminal MBP-His8; label: 5'-FAM on bottom strand
MBP-His8-MilO [2] = assay: fluorescence polarization; conditions: FP: 20 mM Tris pH 8.0, 50 mM KCl, 2.5 mM MgCl2, 0.2 mM DTT, 0.02 ug/uL salmon sperm DNA, 5% glycerol, 5 nM probe; recombinant protein; protein details: N-terminal MBP-His8; label: 5'-FAM on bottom strand

**Q.** Does “CACTATTTAATCGTATTATCTAACGGCGCCTATCAACATCCCGG (double strand) [OBSM7]” bind (MBP-His8-MilO [1])?
**A.** Result: no binding

**Q.** Does “CACTATTTAATCGTATTATCTAACGGCGCCTATCAACATCCCGG (double strand) [OBSM7]” bind (MBP-His8-MilO [2])?
**A.** Result: no binding

**Q.** Does “TGTCGCCCGGTCGTGTCGCTCGGTGGCGCCTATCAACGCCCCGG (double strand) [OBSM3]” bind (MBP-His8-MilO [1])?
**A.** Result: binds more weakly

**Q.** Does “CACTATTTAATCGTATTATCTAACGGTGTCCGCCGGTGCCCCGG (double strand) [OBSM4]” bind (MBP-His8-MilO [1])?
**A.** Result: binds more weakly

**Q.** Does “CACTATTTAATCGTATTATCTAACGGTGTCCGCCGGTGCCCCGG (double strand) [OBSM4]” bind (MBP-His8-MilO [2])?
**A.** Result: binds more weakly

**Q.** Does “CACTATTTAATCGTGTCGCTCGGTGGCGCCTATCAACGCCCCGG (double strand) [OBSM6]” bind (MBP-His8-MilO [1])?
**A.** Result: binds more weakly

**Q.** Does “CACTATTTAATCGTGTCGCTCGGTGGCGCCTATCAACGCCCCGG (double strand) [OBSM6]” bind (MBP-His8-MilO [2])?
**A.** Result: binds more weakly

**Q.** Does “TGTCGCCCGGTCGTATTATCTAACGGTGTCCGCCGGTGCCCCGG (double strand) [OBSM2]” bind (MBP-His8-MilO [1])?
**A.** Result: binds more weakly

**Q.** Does “TGTCGCCCGGTCGTATTATCTAACGGCGCCTATCAACGCCCCGG (double strand) [OBSM5]” bind (MBP-His8-MilO [1])?
**A.** Result: binds more weakly

**Q.** Does “TGTCGCCCGGTCGTATTATCTAACGGCGCCTATCAACGCCCCGG (double strand) [OBSM5]” bind (MBP-His8-MilO [2])?
**A.** Result: binds more weakly

**Q.** Does “CACTATTTAATCGTGTCGCTCGGTGGTGTCCGCCGGTGCCCCGG (double strand) [OBSM1]” bind (MBP-His8-MilO [1])?
**A.** Result: binds more weakly
